# In article PMC8213057, “Targeting ALK2: An Open Science Approach to Developing Therapeutics for the Treatment of Diffuse Intrinsic Pontine Glioma” (Journal of Medicinal Chemistry, 2020):
# Sequences of proteins named here, by UniProt entry; tags and fusion partners are left off. A change or cut given only in a name is not applied to a line headed by its entry. Residues count along the entry.
# UniProt Q8TF76: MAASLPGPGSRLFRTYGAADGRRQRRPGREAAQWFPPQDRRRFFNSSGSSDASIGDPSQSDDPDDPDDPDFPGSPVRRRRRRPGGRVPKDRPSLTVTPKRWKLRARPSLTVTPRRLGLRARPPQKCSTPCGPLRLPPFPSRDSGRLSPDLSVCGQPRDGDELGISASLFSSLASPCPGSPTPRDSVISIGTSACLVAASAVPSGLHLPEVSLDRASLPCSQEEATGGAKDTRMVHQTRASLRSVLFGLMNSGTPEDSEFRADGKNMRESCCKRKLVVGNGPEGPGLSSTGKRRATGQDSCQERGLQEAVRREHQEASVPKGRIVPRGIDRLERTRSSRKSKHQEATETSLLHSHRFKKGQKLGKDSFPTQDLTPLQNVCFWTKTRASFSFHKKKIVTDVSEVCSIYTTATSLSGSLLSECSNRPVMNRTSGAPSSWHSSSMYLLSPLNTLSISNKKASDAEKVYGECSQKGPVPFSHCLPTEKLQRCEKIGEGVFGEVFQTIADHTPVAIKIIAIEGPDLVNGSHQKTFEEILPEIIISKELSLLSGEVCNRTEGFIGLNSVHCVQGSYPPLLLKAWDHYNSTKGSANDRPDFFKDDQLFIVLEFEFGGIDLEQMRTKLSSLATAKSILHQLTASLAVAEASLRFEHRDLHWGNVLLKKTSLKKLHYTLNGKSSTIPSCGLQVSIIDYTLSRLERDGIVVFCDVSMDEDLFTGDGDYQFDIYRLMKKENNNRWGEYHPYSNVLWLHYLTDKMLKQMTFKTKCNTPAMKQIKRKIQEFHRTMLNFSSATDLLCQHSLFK
# UniProt P05771, 1-673 isoform P05771-2: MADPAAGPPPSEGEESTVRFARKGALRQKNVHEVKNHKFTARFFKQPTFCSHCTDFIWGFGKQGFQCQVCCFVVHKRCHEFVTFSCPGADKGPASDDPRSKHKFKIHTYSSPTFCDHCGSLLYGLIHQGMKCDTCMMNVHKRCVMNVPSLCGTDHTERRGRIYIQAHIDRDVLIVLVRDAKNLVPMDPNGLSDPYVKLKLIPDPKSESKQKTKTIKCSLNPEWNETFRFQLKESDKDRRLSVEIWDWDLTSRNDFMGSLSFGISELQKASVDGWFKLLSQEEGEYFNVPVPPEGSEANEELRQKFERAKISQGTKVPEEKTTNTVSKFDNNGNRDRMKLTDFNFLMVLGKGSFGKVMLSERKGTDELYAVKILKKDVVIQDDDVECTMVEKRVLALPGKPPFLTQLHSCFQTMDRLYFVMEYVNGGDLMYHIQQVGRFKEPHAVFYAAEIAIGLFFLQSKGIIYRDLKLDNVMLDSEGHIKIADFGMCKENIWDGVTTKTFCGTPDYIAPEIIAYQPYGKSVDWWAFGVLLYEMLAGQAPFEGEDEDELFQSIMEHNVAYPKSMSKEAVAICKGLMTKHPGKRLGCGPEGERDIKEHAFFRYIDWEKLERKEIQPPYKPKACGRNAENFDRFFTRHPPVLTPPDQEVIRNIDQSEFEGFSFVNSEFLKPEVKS
# UniProt Q9NWZ3, whole entry: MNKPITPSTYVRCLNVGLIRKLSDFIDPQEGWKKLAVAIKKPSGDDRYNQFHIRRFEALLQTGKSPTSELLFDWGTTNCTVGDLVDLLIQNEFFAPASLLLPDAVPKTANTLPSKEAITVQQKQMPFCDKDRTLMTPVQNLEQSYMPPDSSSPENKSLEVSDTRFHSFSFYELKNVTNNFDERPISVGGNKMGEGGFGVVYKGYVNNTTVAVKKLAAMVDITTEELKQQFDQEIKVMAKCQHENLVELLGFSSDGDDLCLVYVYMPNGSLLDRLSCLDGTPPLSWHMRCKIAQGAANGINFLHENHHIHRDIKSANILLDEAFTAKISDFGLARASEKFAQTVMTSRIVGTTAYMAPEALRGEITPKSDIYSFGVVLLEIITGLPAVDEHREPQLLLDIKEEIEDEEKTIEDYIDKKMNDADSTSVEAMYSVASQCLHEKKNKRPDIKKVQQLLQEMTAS
# UniProt P22612, whole entry: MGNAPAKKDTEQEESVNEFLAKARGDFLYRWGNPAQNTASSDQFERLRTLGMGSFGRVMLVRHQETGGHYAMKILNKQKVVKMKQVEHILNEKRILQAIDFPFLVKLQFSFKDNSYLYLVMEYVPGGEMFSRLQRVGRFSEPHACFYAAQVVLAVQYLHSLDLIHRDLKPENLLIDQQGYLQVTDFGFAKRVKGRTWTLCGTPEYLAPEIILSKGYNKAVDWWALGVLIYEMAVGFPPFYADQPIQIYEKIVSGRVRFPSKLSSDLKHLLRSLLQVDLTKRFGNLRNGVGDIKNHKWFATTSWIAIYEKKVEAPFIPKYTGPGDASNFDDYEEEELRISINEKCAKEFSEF
# UniProt Q13188: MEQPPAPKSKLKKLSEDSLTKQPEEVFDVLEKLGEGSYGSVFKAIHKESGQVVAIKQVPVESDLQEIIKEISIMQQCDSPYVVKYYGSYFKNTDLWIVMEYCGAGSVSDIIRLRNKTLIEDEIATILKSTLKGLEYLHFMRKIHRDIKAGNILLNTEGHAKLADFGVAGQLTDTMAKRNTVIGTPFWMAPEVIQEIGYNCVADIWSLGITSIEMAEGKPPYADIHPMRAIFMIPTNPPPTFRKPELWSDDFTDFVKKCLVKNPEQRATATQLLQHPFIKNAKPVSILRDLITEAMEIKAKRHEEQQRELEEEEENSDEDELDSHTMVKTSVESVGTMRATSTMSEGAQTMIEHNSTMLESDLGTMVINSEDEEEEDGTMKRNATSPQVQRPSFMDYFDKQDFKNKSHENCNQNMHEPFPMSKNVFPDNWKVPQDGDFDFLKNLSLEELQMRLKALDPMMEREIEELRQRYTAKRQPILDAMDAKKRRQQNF
# UniProt P29322, 28-1005: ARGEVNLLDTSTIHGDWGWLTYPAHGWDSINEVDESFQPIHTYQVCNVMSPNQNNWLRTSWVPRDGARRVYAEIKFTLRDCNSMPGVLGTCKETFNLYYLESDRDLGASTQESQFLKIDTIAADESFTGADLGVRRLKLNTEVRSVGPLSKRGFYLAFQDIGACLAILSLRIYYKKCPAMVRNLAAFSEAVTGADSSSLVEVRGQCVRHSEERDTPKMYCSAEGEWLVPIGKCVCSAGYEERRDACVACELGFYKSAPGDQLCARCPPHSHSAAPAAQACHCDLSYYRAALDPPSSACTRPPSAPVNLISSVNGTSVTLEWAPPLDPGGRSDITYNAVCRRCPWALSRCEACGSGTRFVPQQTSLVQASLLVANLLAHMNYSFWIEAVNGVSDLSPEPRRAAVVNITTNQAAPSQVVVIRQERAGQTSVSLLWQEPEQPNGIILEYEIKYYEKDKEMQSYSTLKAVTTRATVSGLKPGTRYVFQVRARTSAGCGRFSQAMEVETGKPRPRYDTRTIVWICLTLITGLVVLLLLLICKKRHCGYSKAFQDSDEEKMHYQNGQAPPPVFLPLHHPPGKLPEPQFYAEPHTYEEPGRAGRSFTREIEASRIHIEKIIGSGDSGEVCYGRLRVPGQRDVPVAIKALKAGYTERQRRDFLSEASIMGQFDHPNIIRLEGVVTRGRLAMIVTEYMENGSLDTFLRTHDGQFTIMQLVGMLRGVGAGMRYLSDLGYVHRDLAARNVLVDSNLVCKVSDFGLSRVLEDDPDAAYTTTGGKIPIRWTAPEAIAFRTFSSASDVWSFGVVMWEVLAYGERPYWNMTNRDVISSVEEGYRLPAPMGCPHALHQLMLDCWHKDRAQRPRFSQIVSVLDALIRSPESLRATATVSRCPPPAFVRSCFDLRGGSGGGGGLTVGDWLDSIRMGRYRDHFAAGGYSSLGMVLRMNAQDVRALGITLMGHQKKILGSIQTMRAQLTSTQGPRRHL
# UniProt P50750, whole entry: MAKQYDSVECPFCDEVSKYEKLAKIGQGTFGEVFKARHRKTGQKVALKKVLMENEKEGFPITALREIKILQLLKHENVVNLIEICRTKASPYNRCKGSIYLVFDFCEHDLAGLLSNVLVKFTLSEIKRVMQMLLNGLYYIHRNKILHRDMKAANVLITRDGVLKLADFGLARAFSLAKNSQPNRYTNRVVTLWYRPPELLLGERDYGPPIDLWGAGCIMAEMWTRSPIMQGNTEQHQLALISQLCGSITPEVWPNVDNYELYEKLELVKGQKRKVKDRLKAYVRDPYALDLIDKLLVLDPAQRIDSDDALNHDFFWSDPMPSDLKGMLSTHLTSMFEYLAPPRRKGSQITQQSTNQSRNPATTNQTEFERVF
# UniProt P23443: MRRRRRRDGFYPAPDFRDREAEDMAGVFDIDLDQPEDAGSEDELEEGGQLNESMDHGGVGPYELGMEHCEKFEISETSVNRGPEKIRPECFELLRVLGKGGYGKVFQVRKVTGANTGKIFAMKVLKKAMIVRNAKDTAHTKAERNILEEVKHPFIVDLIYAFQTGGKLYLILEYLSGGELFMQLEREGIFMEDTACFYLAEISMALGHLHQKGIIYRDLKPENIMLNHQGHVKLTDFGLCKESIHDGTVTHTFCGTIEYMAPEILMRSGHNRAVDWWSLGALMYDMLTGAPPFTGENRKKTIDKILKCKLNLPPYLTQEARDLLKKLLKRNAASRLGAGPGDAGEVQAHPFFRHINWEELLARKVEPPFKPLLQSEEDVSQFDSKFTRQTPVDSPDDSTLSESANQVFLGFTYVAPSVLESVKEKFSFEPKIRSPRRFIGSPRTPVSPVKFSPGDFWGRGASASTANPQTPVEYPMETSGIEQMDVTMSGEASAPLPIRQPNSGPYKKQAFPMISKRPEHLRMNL
# UniProt Q7KZI7: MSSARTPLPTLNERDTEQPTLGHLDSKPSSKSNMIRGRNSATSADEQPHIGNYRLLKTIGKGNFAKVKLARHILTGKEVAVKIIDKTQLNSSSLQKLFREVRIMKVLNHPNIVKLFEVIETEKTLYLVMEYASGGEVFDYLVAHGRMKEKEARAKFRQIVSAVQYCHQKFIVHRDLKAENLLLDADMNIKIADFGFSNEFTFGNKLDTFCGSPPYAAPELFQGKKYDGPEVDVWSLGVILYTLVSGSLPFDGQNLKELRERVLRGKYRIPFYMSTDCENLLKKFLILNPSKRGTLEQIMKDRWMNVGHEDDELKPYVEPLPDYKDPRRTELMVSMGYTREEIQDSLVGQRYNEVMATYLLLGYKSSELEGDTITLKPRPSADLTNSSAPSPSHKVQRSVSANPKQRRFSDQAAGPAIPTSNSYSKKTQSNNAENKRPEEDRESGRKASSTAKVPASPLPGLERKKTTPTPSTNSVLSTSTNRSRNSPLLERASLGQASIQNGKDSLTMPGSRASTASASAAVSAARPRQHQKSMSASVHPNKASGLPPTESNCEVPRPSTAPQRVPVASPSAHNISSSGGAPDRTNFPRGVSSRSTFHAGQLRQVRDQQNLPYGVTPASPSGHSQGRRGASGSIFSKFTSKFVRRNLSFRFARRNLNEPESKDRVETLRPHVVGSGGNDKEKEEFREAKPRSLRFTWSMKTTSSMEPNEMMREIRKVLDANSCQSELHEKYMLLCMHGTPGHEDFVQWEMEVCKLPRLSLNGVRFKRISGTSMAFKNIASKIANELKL
# UniProt Q96KB5: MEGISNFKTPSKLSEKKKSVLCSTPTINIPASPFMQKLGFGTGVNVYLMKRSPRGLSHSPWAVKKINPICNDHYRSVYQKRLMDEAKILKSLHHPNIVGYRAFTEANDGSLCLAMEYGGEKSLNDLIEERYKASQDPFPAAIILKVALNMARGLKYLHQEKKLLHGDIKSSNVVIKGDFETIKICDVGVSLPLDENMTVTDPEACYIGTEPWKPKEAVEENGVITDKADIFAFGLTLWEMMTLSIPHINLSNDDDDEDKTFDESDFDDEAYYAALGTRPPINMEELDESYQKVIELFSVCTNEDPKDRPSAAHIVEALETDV
# UniProt Q16832, 22-855: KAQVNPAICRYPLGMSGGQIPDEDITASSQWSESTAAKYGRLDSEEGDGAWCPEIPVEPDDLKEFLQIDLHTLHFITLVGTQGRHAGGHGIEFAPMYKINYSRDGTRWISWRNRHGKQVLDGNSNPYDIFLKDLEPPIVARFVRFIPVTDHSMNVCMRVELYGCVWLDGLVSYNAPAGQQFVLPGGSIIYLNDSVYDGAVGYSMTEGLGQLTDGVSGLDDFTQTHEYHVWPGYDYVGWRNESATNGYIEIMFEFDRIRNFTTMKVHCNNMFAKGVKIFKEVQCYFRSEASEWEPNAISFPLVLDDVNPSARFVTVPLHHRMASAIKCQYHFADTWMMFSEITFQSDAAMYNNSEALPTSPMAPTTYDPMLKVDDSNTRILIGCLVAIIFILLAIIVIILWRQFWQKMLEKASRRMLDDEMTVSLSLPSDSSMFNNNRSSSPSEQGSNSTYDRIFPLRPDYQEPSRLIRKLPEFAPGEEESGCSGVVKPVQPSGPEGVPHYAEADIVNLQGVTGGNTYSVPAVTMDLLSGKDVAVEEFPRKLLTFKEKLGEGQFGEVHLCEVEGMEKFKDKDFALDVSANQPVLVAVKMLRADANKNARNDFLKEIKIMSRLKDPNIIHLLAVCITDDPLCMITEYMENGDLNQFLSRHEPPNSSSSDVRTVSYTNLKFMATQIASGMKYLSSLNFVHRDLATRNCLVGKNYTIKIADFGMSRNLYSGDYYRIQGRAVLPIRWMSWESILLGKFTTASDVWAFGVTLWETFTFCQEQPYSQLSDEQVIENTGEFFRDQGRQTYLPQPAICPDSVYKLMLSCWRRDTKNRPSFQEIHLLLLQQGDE
# Assays:
# Haspin = Haspin (Homo sapiens, UniProt Q8TF76); conditions: 1 μM; Run 1, Run 2
# RIPK5 = RIPK5 (Homo sapiens, UniProt Q6XUX3); assay: biochemical; conditions: read-out: % enzyme activity, 1 μM; Run 1, Run 2
# CAMK1a = CAMK1a (Homo sapiens, UniProt Q14012); assay: biochemical; conditions: read-out: % enzyme activity, 1 μM; Run 1, Run 2
# PKCb2 = PKCb2 (Homo sapiens, UniProt P05771); conditions: 1 μM; Run 1, Run 2
# IRAK4 = IRAK4 (Homo sapiens, UniProt Q9NWZ3); conditions: 1 μM; Run 1, Run 2
# AURORA B = AURORA B (Homo sapiens, UniProt Q96GD4); assay: biochemical; conditions: read-out: % enzyme activity, 1 μM; Run 1, Run 2
# PKAcg = PKAcg (Homo sapiens, UniProt P22612); assay: biochemical; conditions: read-out: % enzyme activity, 1 μM; Run 1, Run 2
# HIPK2 = HIPK2 (Homo sapiens, UniProt Q9H2X6); conditions: 1 μM; Run 1, Run 2
# IR = IR (Homo sapiens, UniProt P06213); assay: biochemical; conditions: read-out: % enzyme activity, 1 μM; Run 1, Run 2
# CDK1/cyclin E = CDK1/cyclin E (Homo sapiens, UniProt P06493); conditions: 1 μM; Run 1, Run 2
# SRPK2 = SRPK2 (Homo sapiens, UniProt P78362); assay: biochemical; conditions: read-out: % enzyme activity, 1 μM; Run 1, Run 2
# Aurora A = Aurora A (Homo sapiens, UniProt O14965); assay: biochemical; conditions: read-out: % enzyme activity, 1 μM; Run 1, Run 2
# P38g = P38g (Homo sapiens, UniProt P53778); conditions: 1 μM; Run 1, Run 2
# GRK6 [1] = biological target: T1, GRK6 (Homo sapiens, UniProt P43250); conditions: 1 μM; Run 1, Run 2
# CDK2/cyclin O = CDK2/cyclin O (Homo sapiens, UniProt P24941); conditions: 1 μM; Run 1, Run 2
# STK33 = STK33 (Homo sapiens, UniProt Q9BYT3); conditions: 1 μM; Run 1, Run 2
# PKCmu/PRKD1 = PKCmu/PRKD1 (Homo sapiens, UniProt Q15139); conditions: 1 μM; Run 1, Run 2
# PKN3/PRK3 [2] = biological target: T2, PKN3/PRK3 (Homo sapiens, UniProt Q6P5Z2); conditions: 1 μM; Run 1, Run 2
# GRK6 [3] = biological target: T1, GRK6; assay: biochemical; conditions: read-out: % enzyme activity, 1 μM; Run 1, Run 2
# MST2/STK3 = MST2/STK3 (Homo sapiens, UniProt Q13188); assay: biochemical; conditions: read-out: % enzyme activity, 1 μM; Run 1, Run 2
# BRSK2 = BRSK2 (Homo sapiens, UniProt Q8IWQ3); conditions: 1 μM; Run 1, Run 2
# EPHA8 = EPHA8 (Homo sapiens, UniProt P29322); conditions: 1 μM; Run 1, Run 2
# MAPKAPK3 = MAPKAPK3 (Homo sapiens, UniProt Q16644); assay: biochemical; conditions: read-out: % enzyme activity, 1 μM; Run 1, Run 2
# FGFR3 = FGFR3 (Homo sapiens, UniProt P22607); conditions: 1 μM; Run 1, Run 2
# TRKA = TRKA (Homo sapiens, UniProt P04629); assay: biochemical; conditions: read-out: % enzyme activity, 1 μM; Run 1, Run 2
# RSK4 = RSK4 (Homo sapiens, UniProt Q9UK32); conditions: 1 μM; Run 1, Run 2
# SLK/STK2 = SLK/STK2 (Homo sapiens, UniProt Q9H2G2); conditions: 1 μM; Run 1, Run 2
# p70S6Kb/RPS6KB2 = p70S6Kb/RPS6KB2 (Homo sapiens, UniProt Q9UBS0); conditions: 1 μM; Run 1, Run 2
# CDK9/cyclin T1 = CDK9/cyclin T1 (Homo sapiens, UniProt P50750); conditions: 1 μM; Run 1, Run 2
# PEAK1 = PEAK1 (Homo sapiens, UniProt Q9H792); assay: biochemical; conditions: read-out: % enzyme activity, 1 μM; Run 1, Run 2
# p70S6K/RPS6KB1 = p70S6K/RPS6KB1 (Homo sapiens, UniProt P23443); assay: biochemical; conditions: read-out: % enzyme activity, 1 μM; Run 1, Run 2
# RSK2 = RSK2 (Homo sapiens, UniProt P51812); assay: biochemical; conditions: read-out: % enzyme activity, 1 μM; Run 1, Run 2
# ERK1 = ERK1 (Homo sapiens, UniProt P27361); conditions: 1 μM; Run 1, Run 2
# MARK2/PAR-1Ba = MARK2/PAR-1Ba (Homo sapiens, UniProt Q7KZI7); conditions: 1 μM; Run 1, Run 2
# JNK1 = JNK1 (Homo sapiens, UniProt P45983); assay: biochemical; conditions: read-out: % enzyme activity, 1 μM; Run 1, Run 2
# PKN3/PRK3 [4] = biological target: T2, PKN3/PRK3; assay: biochemical; conditions: read-out: % enzyme activity, 1 μM; Run 1, Run 2
# EPHB4 = EPHB4 (Homo sapiens, UniProt P54760); assay: biochemical; conditions: read-out: % enzyme activity, 1 μM; Run 1, Run 2
# EPHA2 = EPHA2 (Homo sapiens, UniProt P29317); assay: biochemical; conditions: read-out: % enzyme activity, 1 μM; Run 1, Run 2
# TSSK2 = TSSK2 (Homo sapiens, UniProt Q96PF2); assay: biochemical; conditions: read-out: % enzyme activity, 1 μM; Run 1, Run 2
# MAK = MAK (Homo sapiens, UniProt P20794); assay: biochemical; conditions: read-out: % enzyme activity, 1 μM; Run 1, Run 2
# CDK9/cyclin T2 = CDK9/cyclin T2 (Homo sapiens, UniProt P50750); assay: biochemical; conditions: read-out: % enzyme activity, 1 μM; Run 1, Run 2
# PBK/TOPK = PBK/TOPK (Homo sapiens, UniProt Q96KB5); conditions: 1 μM; Run 1, Run 2
# DDR2 = DDR2 (Homo sapiens, UniProt Q16832); conditions: 1 μM; Run 1, Run 2
smiles,measurement,setting,value
"COc1cc(-c2cncc(-c3ccc(N4CCN(C(C)C)CC4)cc3)c2C)cc(F)c1C(N)=O [Compound 26b, 2-Fluoro-4-(5-(4-(4-isopropylpiperazin-1-yl)phenyl)-4-methylpyridin-3-yl)-6-methoxybenzamide]",% enzyme activity,Haspin,83.53%
same,remaining activity at 1 µM,RIPK5,84.8%
same,remaining activity at 1 µM,CAMK1a,94.7%
same,% enzyme activity,PKCb2,103.20%
same,% enzyme activity,IRAK4,88.83%
same,remaining activity at 1 µM,AURORA B,112%
same,remaining activity at 1 µM,PKAcg,92%
same,% enzyme activity,HIPK2,96.91%
same,remaining activity at 1 µM,IR,101%
same,% enzyme activity,CDK1/cyclin E,99.30%
same,remaining activity at 1 µM,SRPK2,97.2%
same,remaining activity at 1 µM,Aurora A,93.8%
same,% enzyme activity,P38g,90.04%
same,% enzyme activity,GRK6 [1],103.22%
same,% enzyme activity,CDK2/cyclin O,92.30%
same,% enzyme activity,STK33,96.42%
same,% enzyme activity,PKCmu/PRKD1,90.68%
same,% enzyme activity,PKN3/PRK3 [2],98.77%
same,remaining activity at 1 µM,GRK6 [3],104%
same,remaining activity at 1 µM,MST2/STK3,98.3%
same,% enzyme activity,BRSK2,71.41%
same,% enzyme activity,EPHA8,95.79%
same,remaining activity at 1 µM,MAPKAPK3,99.5%
same,% enzyme activity,FGFR3,104.10%
same,remaining activity at 1 µM,TRKA,91.9%
same,% enzyme activity,RSK4,94.31%
same,% enzyme activity,SLK/STK2,104.60%
same,% enzyme activity,p70S6Kb/RPS6KB2,98.03%
same,% enzyme activity,CDK9/cyclin T1,92.35%
same,remaining activity at 1 µM,PEAK1,112%
same,remaining activity at 1 µM,p70S6K/RPS6KB1,97.8%
same,remaining activity at 1 µM,RSK2,97.4%
same,% enzyme activity,ERK1,97.39%
same,% enzyme activity,MARK2/PAR-1Ba,92.98%
same,remaining activity at 1 µM,JNK1,86.4%
same,remaining activity at 1 µM,PKN3/PRK3 [4],101%
same,remaining activity at 1 µM,EPHB4,91%
same,remaining activity at 1 µM,EPHA2,102%
same,remaining activity at 1 µM,TSSK2,107%
same,remaining activity at 1 µM,MAK,112%
same,remaining activity at 1 µM,CDK9/cyclin T2,102%
same,% enzyme activity,PBK/TOPK,94.31%
same,% enzyme activity,DDR2,91.94%
